The list shows a part of the results. Single values are uncertain here, since repeats match poorly.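 Flies heterozygous for the ATM8 allele over a balancer chromosome carrying normal ATM were mated with each other on treated food. Parents laid eggs for 5–6 days and the young then developed for about 12 days, so both parents and larvae ate the compound. The read-out is the share of all emerged adults that carry two ATM8 copies, compared with 2% DMSO control vials. The paper called compounds neutral at 10–20% such offspring, harmful below 10%, and helpful above 20%.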 Bridge positions count the residues as written; N and C are the ends. Square brackets hold non-standard residues; d marks the D form. Peptide text beside a SMILES is read from it. * marks the point of attachment. Ileψ(thiazoline)Cys = CC[C@H](C)[C@H](N)C1=N[C@H](C(=O)*)CS1; dOrn = NCCC[C@@H](N)C(=O)O
test system: Drosophila melanogaster ATM8 (temperature-sensitive ATM allele); test: fraction of eclosed F1 progeny that are homozygous ATM8 (rescue of developmental lethality); higher = more rescue of ATM8 developmental lethality; extreme values may be limits of the assay; conditions: compound concentration applied to food 0.2 mM; 21 °C

SMILES	fraction of eclosed F1 progeny that are homozygous ATM8
CC(=O)OC1CCC2(C)C(=CCC3C2CCC2(C)C(C(C)CCCC(C)C)CCC32)C1 (centres undefined)	0.127
C[C@]12CC[C@H](O)C[C@@H]1CC[C@@H]1[C@@H]2CC[C@]2(C)[C@@H](O)CC[C@@H]12 [5alpha-ANDROSTAN-3beta,17beta-DIOL]	0.14
C[C@H](CCC(=O)O)[C@H]1CC[C@H]2[C@@H]3[C@H](O)C[C@@H]4C[C@H](O)CC[C@]4(C)[C@H]3C[C@H](O)[C@]12C	0.208
O=c1ccc2cc(O)c(O)cc2o1	0.242
Cc1c(OCC(F)(F)F)ccnc1C[S@@+]([O-])c1nc2ccccc2[nH]1	0.29
COc1cc2c(N3CCN(C(=O)Nc4ccc(OC(C)C)cc4)CC3)ncnc2cc1OCCCN1CCCCC1	0.093
Cc1cc(O)c2c(c1)C(=O)c1cccc(O)c1C2=O	0.0923
CC(C(=O)O)c1ccc(-c2ccccc2)c(F)c1 (centres undefined)	0.15
O=C(OCC(O)CO)c1ccccc1Nc1ccnc2cc(Cl)ccc12 (centres undefined)	0.0811
C[C@H]1O[C@@H](O[C@H]2[C@@H](O)C[C@H](O[C@H]3[C@@H](O)C[C@H](O[C@H]4CC[C@@]5(C)[C@H](CC[C@@H]6[C@@H]5C[C@@H](O)[C@]5(C)[C@@H](C7=CC(=O)OC7)CC[C@]65O)C4)O[C@@H]3C)O[C@@H]2C)C[C@H](O)[C@@H]1O	0.114
Cc1cccc(C)c1NC(=O)C(C)N (centres undefined)	0.164
O=C(O)C1CCCNC1 (centres undefined)	0.0909
CO/N=C(\C(=O)N[C@@H]1C(=O)N2C(C(=O)O)=C(CSc3nnnn3C)CS[C@H]12)c1csc(N)n1	0.111
CC(C(=O)O)c1ccc2c(c1)[nH]c1ccc(Cl)cc12 (centres undefined)	0.167
O=C1c2c(O)cccc2C([C@@H]2O[C@H](CO)[C@@H](O)[C@H](O)[C@H]2O)c2cc(CO)cc(O)c21 (some centres undefined)	0.121
CN(C)C(=O)C(CCN1CCC(O)(c2ccc(Cl)cc2)CC1)(c1ccccc1)c1ccccc1	0.231
COc1ccc(/C=C/C(=O)Nc2ccccc2C(=O)O)cc1OC	0.0276
Nc1ccncc1	0.122
CCOC(=O)C1=C(COCCN)NC(C)=C(C(=O)OC)C1c1ccccc1Cl (centres undefined)	0.368
CC(=O)N1CCCC1C(=O)O (centres undefined)	0.0789

SMILES	fraction of eclosed F1 progeny that are homozygous ATM8
Oc1ccc(/C=C/c2cc(O)cc(O)c2)cc1	0.174
Oc1c(Cl)cc(Cl)c(Cl)c1Cc1c(O)c(Cl)cc(Cl)c1Cl	0.286
Cc1c(N(C)C)c(=O)n(-c2ccccc2)n1C	0.208
COc1ccccc1OCC(O)CO (centres undefined)	0.143
NC[C@@H]1O[C@H](O[C@H]2[C@@H](O)[C@H](O[C@@H]3[C@@H](O)[C@H](N)C[C@H](N)[C@H]3O[C@H]3O[C@H](CO)[C@@H](O)[C@H](O)[C@H]3N)O[C@@H]2CO)[C@H](N)[C@@H](O)[C@@H]1O	0.0492
CC[C@]1(O)C[C@H]2CN(CCc3c([nH]c4ccccc34)[C@@](C(=O)OC)(c3cc4c(cc3OC)N(C=O)[C@H]3[C@@](O)(C(=O)OC)[C@H](OC(C)=O)[C@]5(CC)C=CCN6CC[C@]43[C@@H]65)C2)C1	0.06
COc1cc(C)c2c(c1C=O)Oc1c(c(C)c(O)c3c1C(O)OC3=O)OC2=O (centres undefined)	0.104
CC(=O)[C@H]1CC[C@H]2[C@@H]3C=CC4=CC(=O)CC[C@@]4(C)[C@@H]3CC[C@]12C	0.0303
Cc1cc(=O)[nH]c(=S)[nH]1	0.069
CN(C)Cc1c[nH]c2ccccc12	0.164
O=C(CCCCCCCC(=O)NCCO)NCCO	0.156
CN1[C@@H]2CC[C@H]1C[C@@H](OC(=O)c1c[nH]c3ccccc13)C2	0.2
Oc1cc(O)c2c(c1)O[C@H](c1cc(O)c(O)c(O)c1)[C@H](O)C2	0.173
Nc1ccn([C@H]2CC[C@@H](CO)O2)c(=O)n1	0.0682
CN(C(=O)C(Cl)Cl)c1ccc(OC(=O)c2ccco2)cc1	0.0227
O=C1c2ccc(O)c(O)c2C(=O)c2c(O)ccc(O)c21	0.1
COc1cc(/C=C/C(N)=O)cc(OC)c1OC	0.125
C=CCNC(N)=S	0.264
CN(C)CCOC(C)(c1ccccc1)c1ccccn1 (centres undefined)	0.0541
CC(=O)c1ccc2c(c1)N(CCCN(C)C)c1ccccc1S2	0

SMILES	fraction of eclosed F1 progeny that are homozygous ATM8
COc1ccc(-c2cc(=O)c3cc(OC)ccc3o2)cc1	0.174
CC(C)(C#N)c1cc(Cn2cncn2)cc(C(C)(C)C#N)c1	0.0714
C=CC(C1=CC(=O)C(OC)=CC1=O)c1ccc(OC)cc1 (centres undefined)	0.105
Oc1c(I)cc(Cl)c2cccnc12	0.417
OC(CNCC(O)C1CCc2cc(F)ccc2O1)C1CCc2cc(F)ccc2O1 (centres undefined)	0.22
O=C(CCc1ccc(O)cc1)c1c(O)cc(O)cc1O	0.189
CC[C@H](C)[C@H](N)C1=N[C@H](C(=O)N[C@@H](CC(C)C)C(=O)N[C@H](CCC(=O)O)C(=O)N[C@H](C(=O)N[C@H]2CCCCNC(=O)[C@H](CC(N)=O)NC(=O)[C@@H](CC(=O)O)NC(=O)[C@H](Cc3cnc[nH]3)NC(=O)[C@@H](Cc3ccccc3)NC(=O)[C@H]([C@@H](C)CC)NC(=O)[C@@H](CCCN)NC2=O)[C@@H](C)CC)CS1 ({Ileψ(thiazoline)Cys}-L[dE]IK[dOrn]I[dF]H[dD]N; lactam 4-C)	0.143
COC(=O)[C@@H]1C[C@H](OC(C)=O)C(=O)[C@H]2[C@@]1(C)CC[C@H]1C(=O)O[C@H](c3ccoc3)C[C@]21C	0.167
CC[C@@H](C(N)=O)N1CCCC1=O	0.0238
CC(=O)NS(=O)(=O)c1ccc(NC(=O)c2ccccc2C(=O)O)cc1	0.149
Cc1c[nH]c2ccccc12	0.182
O=C(O)CCCc1ccc(N(CCCl)CCCl)cc1	0.133
COc1ccc(OC)c(C(O)CNC(=O)CN)c1 (centres undefined)	0.0168
CC(S)C(=O)NCC(=O)O (centres undefined)	0.19
C=CC(C)(O)CCC1C(=C)CC(OC(C)=O)C2C(C)(C)CCCC12C (centres undefined)	0.179
CN1CCN(CCCN2c3ccccc3Sc3ccc(C(F)(F)F)cc32)CC1	0.0833
CC[C@@]1(O)C[C@H](O)c2c(cc3c(c2O)C(=O)c2c(O)ccc(O)c2C3=O)[C@H]1C(=O)OC	0.116
CNC[C@H](O)c1ccc(O)c(O)c1	0.0789
COC(=O)C[C@H]1C(C)(C)C2(O)OC34CC2C(=O)[C@]1(C)C3CC[C@]1(C)C4=CC(=O)O[C@H]1c1ccoc1 (stereo partly drawn) [8beta-HYDROXYCARAPIN, 3,8-HEMIACETAL]	0.225

No new results follow: five of the compounds above.
SMILES	fraction of eclosed F1 progeny that are homozygous ATM8
C=CC(C)(O)CCC1C(=C)CC(OC(C)=O)C2C(C)(C)CCCC12C (centres undefined)	0.179
CN1CCN(CCCN2c3ccccc3Sc3ccc(C(F)(F)F)cc32)CC1	0.0833
CC[C@@]1(O)C[C@H](O)c2c(cc3c(c2O)C(=O)c2c(O)ccc(O)c2C3=O)[C@H]1C(=O)OC	0.116
CNC[C@H](O)c1ccc(O)c(O)c1	0.0789
COC(=O)C[C@H]1C(C)(C)C2(O)OC34CC2C(=O)[C@]1(C)C3CC[C@]1(C)C4=CC(=O)O[C@H]1c1ccoc1 (stereo partly drawn) [8beta-HYDROXYCARAPIN, 3,8-HEMIACETAL]	0.225
